Data as given in PubChem BioAssay AID1224830 (NIAID, 2016)

- Aim: 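Host factors that control LPS-induced TNF expression in human macrophages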 (primary screen)
- Cells: human THP-1 monocytic leukaemia cells, TNF dual-luciferase reporter clone, PMA-differentiated to macrophage-like cells
- Reagent: siRNA pool against human genes, 50 nM
- Duration: LPS for 4 h, given about 3 days after siRNA transfection
- Treatment: bacterial LPS (TLR4 ligand), 10 ng/ml
- Measurement: 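Ratio of firefly to renilla light, scaled to the plate median and expressed as a robust z-score per replicate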
- Direction: TNF reporter robust z-score: higher = stronger TNF reporter response to LPS
- Hit rule: 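a well is active when its z-score exceeds 2.8 or falls below -1.5; control wells carry no call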
The whole screen tested about 18,000 reagents; below is a random part of them. In the full data, about 2,900 (16%) got an active call. 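Calls are made per well; low scores hint the gene aids the LPS response, high scores that it dampens it.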 Repeated entries: four replicate wells of each siRNA pool.

target gene	TNF reporter robust z-score	call
ANKRD30A	-0.31	inactive
ANKRD30A	0.45	inactive
ANKRD30A	0.29	inactive
ANKRD30A	0.69	inactive
GGN	-0.96	inactive
GGN	-0.56	inactive
GGN	-0.3	inactive
GGN	-0.55	inactive
ZSWIM2	-0.15	inactive
ZSWIM2	0.37	inactive
ZSWIM2	1.45	inactive
ZSWIM2	-0.11	inactive
PARP4	2.85	active
PARP4	3.02	active
PARP4	1.92	inactive
PARP4	1.86	inactive
RPL28	2.44	inactive
RPL28	1.21	inactive
RPL28	1.39	inactive
RPL28	1.93	inactive

Called active (from the list above):
target gene	TNF reporter robust z-score	call
PARP4	2.85	active
PARP4	3.02	active

Further records:
target gene	TNF reporter robust z-score	call
ACSM3	1.19	inactive
ACSM3	2.29	inactive
ACSM3	1.28	inactive
ACSM3	1.86	inactive
PDGFRL	-1.83	active
PDGFRL	-0.63	inactive
PDGFRL	-0.4	inactive
PDGFRL	-0.32	inactive
DCSTAMP	-0.63	inactive
DCSTAMP	-0.2	inactive
DCSTAMP	-0.36	inactive
DCSTAMP	-0.39	inactive
KCNG2	0.4	inactive
KCNG2	0.04	inactive
KCNG2	0.25	inactive
KCNG2	1.02	inactive
KCNG2	-1.84	active
KCNG2	0.82	inactive
KCNG2	1.67	inactive
KCNG2	-0.73	inactive
UHMK1	0.5	inactive
UHMK1	0.44	inactive
UHMK1	0.84	inactive
UHMK1	1.41	inactive
HIPK4	2.19	inactive
HIPK4	3.36	active
HIPK4	0.56	inactive
HIPK4	2.06	inactive
